The subject of this data set is HsRAD50-head (Homo sapiens). Kind of data set: EMSA. The conditions noted are these: Mg-ATP, EMSA: 20 mM Bis-Tris propane pH 8.0, 200 mM NaCl, 0.5 mM TCEP, Mg-ATP added to RAD50, 500 nM DNA duplex, 5% polyacrylamide, 0.5x TBE, recombinant protein, label: 5'-carboxyfluorescein (F) on strand 1.

Chains of the proteins cited; added tags and fusions are not shown. Chains listed by the source or under a name are the forms on record and can include a tag or linker.
HsRAD50-head (Homo sapiens), one chain, as listed by the source, chain 2 of 2: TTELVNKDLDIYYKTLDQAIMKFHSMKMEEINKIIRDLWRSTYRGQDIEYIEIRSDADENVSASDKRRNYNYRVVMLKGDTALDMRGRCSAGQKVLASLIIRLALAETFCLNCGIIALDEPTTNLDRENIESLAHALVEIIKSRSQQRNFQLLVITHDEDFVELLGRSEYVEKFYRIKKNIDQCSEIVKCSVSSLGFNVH
HsRAD50-head (Homo sapiens), one chain, as listed by the source, chain 1 of 2: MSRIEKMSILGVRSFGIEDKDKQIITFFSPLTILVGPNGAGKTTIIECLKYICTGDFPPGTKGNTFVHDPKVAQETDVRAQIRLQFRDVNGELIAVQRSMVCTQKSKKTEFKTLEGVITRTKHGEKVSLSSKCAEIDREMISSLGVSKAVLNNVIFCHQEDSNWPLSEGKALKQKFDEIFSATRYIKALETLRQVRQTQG

The values below come from paper PMC11260466, “Binding of the TRF2 iDDR motif to RAD50 highlights a convergent evolutionary strategy to inactivate MRN at telomeres”.

The exact form of at least one protein or probe is not confirmed. Weaker means in comparison with the reference protein, sequence or condition of that experiment.

“TAGTGCTGTAGGAGAATATACGGGCTGCTCGTGTTGACAAGTACTGAT / ATCAGTACTTGTCAACACGAGCAGCCCTATATTCTCCTACAGCACTA [48-mer DNA duplex]”: the binding result (+ GST-iDDR(WT) (Myc, linker, TRF2 449-473), increasing amounts, inhibition dose-dependent) is reported as “binds more weakly” and the binding result (+ TRX-iDDR(WT) (His-TrxA-TRF2 449-473)) is “binds more weakly”.
